# Library screen at single concentrations

Sequences of proteins named here, by UniProt entry; tags and fusion partners are left off. Residues count along the entry.
UniProt A4I591, 1-473: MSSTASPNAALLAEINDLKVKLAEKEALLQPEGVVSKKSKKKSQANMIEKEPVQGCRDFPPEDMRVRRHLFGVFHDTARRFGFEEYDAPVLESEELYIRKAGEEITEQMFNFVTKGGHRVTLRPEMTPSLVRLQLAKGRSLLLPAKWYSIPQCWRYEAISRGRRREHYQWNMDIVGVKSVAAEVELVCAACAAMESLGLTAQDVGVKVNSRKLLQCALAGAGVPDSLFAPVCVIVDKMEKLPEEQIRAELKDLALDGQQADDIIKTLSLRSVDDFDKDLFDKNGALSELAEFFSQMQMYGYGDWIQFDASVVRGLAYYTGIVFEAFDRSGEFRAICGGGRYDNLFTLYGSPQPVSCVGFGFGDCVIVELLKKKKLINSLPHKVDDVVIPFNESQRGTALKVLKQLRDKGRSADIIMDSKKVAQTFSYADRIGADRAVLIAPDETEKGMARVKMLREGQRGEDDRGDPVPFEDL

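Enzyme assay of histidyl-tRNA synthetase; the read-out is not stated. Target: Histidine-tRNA ligase, Leishmania infantum (UniProt A4I591). Concentration: 30 µM. The record gives no direction; compounds that gave an IC50 in retests scored well above the rest, so higher reads as stronger inhibition. The assay is labelled LdHisRS but filed under L. infantum. Of about 69,000 compounds tested this way, about 410 (0.6%) reached 50% or more in at least one test.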

Values are the deposited “Percent Effect”, in %.
How 0% and 100% were set is not recorded. Most values in the screen are low, and negative values occur.
Compounds were drawn at random from those tested, without regard to their results.

| SMILES | Percent Effect |
|---|---|
| `CC(NCc1ccccn1)c1ccc(N2CCN(C)CC2)c(F)c1` (stereo not shown) | 6.579 |
| `CN(C)C(=O)c1sc2ncccc2c1C1CNCCO1` (stereo not shown) | 15.6 |
| `O=C(CCc1cc2n(n1)CCCNC2)N1CCC(N2CCOC2=O)CC1` | 21.43 |
| `O=C(Nc1ccccc1N1CCOC1=O)N1CCc2sccc2C1` | 16.46 |
| `CCS(=O)(=O)CC(C)N(C)C(=O)COc1ccccc1C#N` (stereo not shown) | 9.524 |
| `CC(C)C(=O)N1CCc2onc(C(=O)NCCN(C)C)c2C1` | -8.772 |
| `CC(NCc1ccc(F)cc1)c1ccc(S(C)(=O)=O)cc1` (stereo not shown) | 19.18 |
| `Cc1cnc(N2CC[C@@H]3OC(COCC(=O)N(C)C)CC[C@@H]32)nc1` (stereo partly shown) | 24.69 |
| `Cn1cc(C(=O)N2CC[C@@]3(O)CCN(C(=O)C4CCC4)C[C@H]3C2)cn1` | 14.47 |
| `Cc1ccc(C#N)c(N2CCCC(c3nccn3Cc3cscn3)C2)n1` (stereo not shown) | 10.42 |
| `Cc1nccn1C1CCCN(C(=O)c2cc(O)nc3ccccc23)C1` (stereo not shown) | -28.09 |
| `COCCN1CCc2ncnc(N(C)C)c2CC1` | -4.505 |
| `Cc1cccc(C(=O)N2C[C@@H](OCc3cccnc3)[C@H]3OCCC[C@@H]32)n1` | 21.57 |
| `CCn1ccnc1CN(C)CC1CCCN1c1cccnn1` (stereo not shown) | 25.68 |
| `COC(=O)N1CC2=CC(C)(C)COc3ccc(OC)c(c32)C1` | 4.082 |
| `COc1cccc2c(=O)n(CCN3CCNCC3)cnc12` | 26.76 |
| `CC(NC(=O)Nc1ccc(S(C)(=O)=O)cc1)c1ccc2c(c1)CC(=O)N2` (stereo not shown) | 15.62 |
| `CN(CCc1nc2cc(Cl)ccc2[nH]1)C(=O)c1ncn[nH]1` | -5.128 |
| `Cc1cc(CCC2CN(CC3(O)CCCCC3)CCO2)ncn1` (stereo not shown) | 8.511 |
| `Cc1nc(CN2CCN(C(=O)c3sccc3C3CC3)CC2)cs1` | 0 |
| `O=C(NCc1cccs1)[C@H]1CC[C@@H]2[C@@H](CCN2c2ncccn2)O1` | 13.46 |
| `COCCN1CCCC(CN(C)c2nc3c(s2)c(C)nn3C)C1` (stereo not shown) | 13.43 |
| `CCOc1ccc(C(=O)N2C[C@H]3CC[C@@H]2CN(C)C3)cc1OCC` | 15.08 |
| `CC(C)CN1Cc2nc(N3CCCC3)ncc2C1=O` | 25.93 |
| `c1ccc([C@@H]2CN(Cc3cccnc3)C[C@H]2c2cc[nH]n2)cc1` | 8.054 |
| `CC(C)NC[C@H]1COCc2nc3cccnc3n21` | 13.89 |
| `COc1cc(C(=O)N2CCC(c3n[nH]c(C4CC4)n3)CC2)ccc1C` | -5.405 |
| `CCOCCC(=O)N(C)Cc1noc(C(C)C)n1` | -20 |
| `CC(C(=O)Nc1cccc(Cl)c1SC(F)F)S(C)(=O)=O` (stereo not shown) | 14.16 |
| `COCc1nnc(C(=O)N2CCC(N3CCCCC3)CC2)o1` | -3.191 |
| `O=C1CC(c2cccs2)c2snc(C(=O)O)c2N1` (stereo not shown) | 8.654 |
| `O=C(N[C@H]1CN[C@H]2CCCO[C@H]21)c1cccnc1` | 15.24 |
| `Cn1cnnc1-c1cncc(NCc2ccccc2Br)c1` | 5.882 |
| `Cc1ccsc1C(=O)N1CCc2ncc(Cn3cccn3)n2CC1` | 12 |
| `COCC1CC2(CCN(C(=O)c3ccccc3C)CC2)CN1C(C)C` (stereo not shown) | 4.11 |
| `COCCCNc1c(C#N)c2c(c3nncn13)CN(C)CC2` | 13.16 |
| `O=C(NCC1CC(=O)N(CCc2ccccc2)C1)c1c(F)cccc1F` (stereo not shown) | 16.67 |
| `Cc1cnn(CC2CCCN2CC(=O)N(C)Cc2cnn(C)c2)c1` (stereo not shown) | 26.03 |
| `CN1CCC(c2n[nH]c(=O)n2CC2CCCCC2)CC1` | 25.64 |
| `Cc1cc(C)c2c(N(C)CC3CCOC3)ncnc2n1` (stereo not shown) | 3.509 |
| `O=C(CN1CCOC(Cn2cccn2)C1)NCCc1cccs1` (stereo not shown) | 16.51 |
| `O=C(NC1CC1)N1CCc2ncc(CN3CCOCC3)n2CC1` | 16 |
| `O=S(=O)(c1cccc(F)c1)N1CCCCC1c1ccn[nH]1` (stereo not shown) | -4.348 |
| `Cc1cc(S(=O)(=O)NCC(O)c2sccc2C)ccc1F` (stereo not shown) | 15.65 |
| `CN(CC1CC1)c1ccc2ccc(C(=O)NCCc3ccccc3)cn12` | 19.27 |
| `Clc1ccccc1C1(c2ccnc(-c3ccncc3)n2)CCNCC1` | 17.92 |
| `CC(C)CN1CCCC1c1ccc(C(=O)Nc2cc[nH]n2)s1` (stereo not shown) | -1.333 |
| `Cc1ccc(C(=O)N(C)CC(=O)NCC(F)(F)F)cn1` | 22.34 |
| `Cc1ncc2c(n1)CN(CC(=O)Nc1nncs1)CC2` | 13.64 |
| `CC1CN(C(=O)Nc2cc(C(F)(F)F)c[nH]c2=O)CCO1` (stereo not shown) | 20.21 |
| `N#Cc1cnc(NCc2cccc(C(=O)N3CCCC3)c2)c(Cl)c1` | 8.333 |
| `Cc1cccc(C)c1OCC(=O)N1CCOCC1c1ncon1` (stereo not shown) | 2.632 |
| `CN(Cc1ccccc1)c1ncccc1CNC(=O)c1ccnn1C` | -50.55 |
| `O=C(CCC(=O)N1CCCC1c1cccs1)N1CCc2sccc2C1` (stereo not shown) | 11.9 |
| `CC(=O)c1cccc(-c2c[nH]c(C)n2)c1` | 8 |
| `CC(C)(C)CC(=O)N1CC[C@H]2CC(=O)N(CCc3c[nH]cn3)CC[C@H]2C1` | 12.16 |
| `O=S(=O)(CCO)CCc1ccccc1Cl` | 14.61 |
| `Cc1csc(CN2CCC[C@]3(C[C@H](OCC4CC4)CO3)C2)n1` | 11.7 |
| `Cc1c(CN2C[C@@H](O)[C@H](Oc3cccc(F)c3)C2)cnn1C` | 2.069 |
| `Cc1cc(NC(=O)CNC(C)(C)c2ccc3c(c2)OCCO3)no1` | 7.937 |
| `CCOCC(O)CN1CCN(C(=O)c2cccc(CC#N)c2)CC1` (stereo not shown) | 5.357 |
| `Cc1ccc(CN(C)C(=O)CNC(=O)N2CCc3ccccc3C2)o1` | -2.174 |
| `c1csc(-c2nc(CN3CCCCC3Cn3cccn3)co2)c1` (stereo not shown) | 9.877 |
| `CCC[C@H]1CN(Cc2ccc3c(c2)OCCO3)C[C@@H]1NC(=O)COC` | 13.6 |
| `CCCc1nnc(NC(=O)N2CCCC2c2ccncc2)s1` (stereo not shown) | -7.5 |
| `CC(C)(C)C(=O)NCCCc1nc2ccccc2[nH]1` | 2.679 |
| `c1cnc(N2CCOCC3(CNCCO3)C2)nc1` (stereo not shown) | 13 |
| `Cc1nc(N(C)C)nc2c1COCC21CCN(CC2CC2)C1` (stereo not shown) | 9.615 |
| `CC(=O)N1Cc2ccccc2C[C@H]1C(=O)N(C)CCc1ccccn1` | 20 |
| `CC1CCCCN1CCNC(=O)NCc1ccc(C#N)cc1F` (stereo not shown) | 12 |
| `CC(=O)NCCCSC1CCN(c2ccccc2Cl)C1=O` (stereo not shown) | 6.593 |
| `CC(NCCCN1CCCN(C)CC1)C(C)(C)C` (stereo not shown) | 5.263 |
| `CN(C)c1nc2c(c(N(C)Cc3n[nH]c4c3CCCC4)n1)CCNCC2` | 31.15 |
| `CC1N(c2cnn(C)c2)C(=O)COC12CCN(CC1CC1)CC2` (stereo not shown) | -1.923 |
| `Cc1ccccc1C(=O)N1CC[C@@H](N2CCC(O)CC2)[C@H](O)C1` | 5.128 |
| `COCc1nc(C(=O)N2CCN(c3nccc(OC)n3)CC2)cs1` | 11.48 |
| `Cc1ccccc1CN1CCCN(S(=O)(=O)N(C)C2CCCCC2)CC1` | 6.667 |
| `Fc1cccc2c1CCC2NCc1cnc(N2CCOCC2)nc1` (stereo not shown) | 14.29 |
| `CCN1CCC2(CC1)c1nc[nH]c1CCN2S(C)(=O)=O` | 22.58 |
| `CCOC(=O)C(C)NC(=O)CCSc1ccc(F)cc1` (stereo not shown) | 7.937 |

The first 7 entries again:

{"smiles": "CC(NCc1ccccn1)c1ccc(N2CCN(C)CC2)c(F)c1", "stereo": "stereo not shown", "Percent Effect": 6.579}
{"smiles": "CN(C)C(=O)c1sc2ncccc2c1C1CNCCO1", "stereo": "stereo not shown", "Percent Effect": 15.6}
{"smiles": "O=C(CCc1cc2n(n1)CCCNC2)N1CCC(N2CCOC2=O)CC1", "Percent Effect": 21.43}
{"smiles": "O=C(Nc1ccccc1N1CCOC1=O)N1CCc2sccc2C1", "Percent Effect": 16.46}
{"smiles": "CCS(=O)(=O)CC(C)N(C)C(=O)COc1ccccc1C#N", "stereo": "stereo not shown", "Percent Effect": 9.524}
{"smiles": "CC(C)C(=O)N1CCc2onc(C(=O)NCCN(C)C)c2C1", "Percent Effect": -8.772}
{"smiles": "CC(NCc1ccc(F)cc1)c1ccc(S(C)(=O)=O)cc1", "stereo": "stereo not shown", "Percent Effect": 19.18}

Measurements from “University of Dundee, Small-Polar-MMV Screening Library” (2021), ChEMBL document CHEMBL3988442.